# Measured values from the supplement of paper PMC10032668.
# Protein sequences, listed by entry. Tags and fused reporters are not part of them.
# AARS, P49588, UniProt P49588, whole entry: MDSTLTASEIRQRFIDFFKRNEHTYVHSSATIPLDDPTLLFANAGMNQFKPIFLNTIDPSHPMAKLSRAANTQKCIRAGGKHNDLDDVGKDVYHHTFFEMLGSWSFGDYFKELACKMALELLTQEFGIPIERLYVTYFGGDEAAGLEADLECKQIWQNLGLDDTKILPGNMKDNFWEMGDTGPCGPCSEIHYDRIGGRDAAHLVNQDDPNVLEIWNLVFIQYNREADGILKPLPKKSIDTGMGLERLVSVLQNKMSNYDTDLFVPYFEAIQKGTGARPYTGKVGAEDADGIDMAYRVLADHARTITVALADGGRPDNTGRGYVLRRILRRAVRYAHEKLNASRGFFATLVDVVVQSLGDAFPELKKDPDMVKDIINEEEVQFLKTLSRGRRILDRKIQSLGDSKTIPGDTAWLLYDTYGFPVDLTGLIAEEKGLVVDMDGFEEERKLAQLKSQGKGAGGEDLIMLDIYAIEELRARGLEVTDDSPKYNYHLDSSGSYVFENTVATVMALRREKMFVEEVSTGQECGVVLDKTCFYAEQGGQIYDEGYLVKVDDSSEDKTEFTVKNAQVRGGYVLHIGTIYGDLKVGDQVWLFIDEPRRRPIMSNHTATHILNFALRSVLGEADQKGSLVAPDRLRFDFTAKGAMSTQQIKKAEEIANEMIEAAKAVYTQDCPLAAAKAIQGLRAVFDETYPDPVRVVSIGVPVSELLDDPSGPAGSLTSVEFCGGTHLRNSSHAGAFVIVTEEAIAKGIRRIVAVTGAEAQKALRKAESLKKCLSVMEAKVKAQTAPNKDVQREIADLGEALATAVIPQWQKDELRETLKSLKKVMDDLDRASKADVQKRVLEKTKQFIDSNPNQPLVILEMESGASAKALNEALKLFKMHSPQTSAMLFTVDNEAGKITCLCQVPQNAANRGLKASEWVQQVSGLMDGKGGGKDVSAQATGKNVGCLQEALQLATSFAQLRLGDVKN
# ACTL6A, O96019, UniProt O96019, whole entry: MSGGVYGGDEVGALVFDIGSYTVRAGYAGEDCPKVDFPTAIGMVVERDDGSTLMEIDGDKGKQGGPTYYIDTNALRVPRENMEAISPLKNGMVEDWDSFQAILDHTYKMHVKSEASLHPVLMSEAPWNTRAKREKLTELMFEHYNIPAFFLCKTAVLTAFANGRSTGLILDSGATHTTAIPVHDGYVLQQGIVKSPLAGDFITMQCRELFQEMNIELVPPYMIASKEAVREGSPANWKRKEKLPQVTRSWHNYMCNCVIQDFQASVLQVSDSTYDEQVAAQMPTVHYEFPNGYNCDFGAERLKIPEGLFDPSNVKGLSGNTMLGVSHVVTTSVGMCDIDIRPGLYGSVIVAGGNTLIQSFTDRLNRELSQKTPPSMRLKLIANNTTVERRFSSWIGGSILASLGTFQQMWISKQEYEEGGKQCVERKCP
# ATP6V1C1, P21283, UniProt P21283, whole entry: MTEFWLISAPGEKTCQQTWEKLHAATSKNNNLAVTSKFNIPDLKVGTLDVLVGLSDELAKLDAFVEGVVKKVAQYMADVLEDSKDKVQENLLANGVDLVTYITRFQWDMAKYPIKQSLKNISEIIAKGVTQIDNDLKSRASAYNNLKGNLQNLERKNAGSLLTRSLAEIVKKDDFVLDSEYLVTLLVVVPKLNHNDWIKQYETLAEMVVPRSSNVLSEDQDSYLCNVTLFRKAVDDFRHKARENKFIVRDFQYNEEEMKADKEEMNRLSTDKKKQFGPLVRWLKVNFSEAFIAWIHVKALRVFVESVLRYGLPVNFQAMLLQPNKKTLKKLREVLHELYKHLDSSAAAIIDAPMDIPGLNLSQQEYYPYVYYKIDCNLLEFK
# CCNB1, P14635, UniProt P14635, whole entry: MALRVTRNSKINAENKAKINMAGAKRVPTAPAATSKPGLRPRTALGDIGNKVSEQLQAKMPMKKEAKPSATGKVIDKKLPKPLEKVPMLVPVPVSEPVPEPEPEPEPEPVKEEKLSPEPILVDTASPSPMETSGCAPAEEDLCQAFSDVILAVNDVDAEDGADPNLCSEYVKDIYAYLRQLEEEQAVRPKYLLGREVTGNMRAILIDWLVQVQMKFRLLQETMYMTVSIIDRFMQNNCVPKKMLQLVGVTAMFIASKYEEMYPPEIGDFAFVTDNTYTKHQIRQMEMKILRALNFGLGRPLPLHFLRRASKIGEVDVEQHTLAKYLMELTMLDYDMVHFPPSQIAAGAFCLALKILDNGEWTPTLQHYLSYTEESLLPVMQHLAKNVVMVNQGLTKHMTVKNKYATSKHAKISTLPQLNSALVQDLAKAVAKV
# CSNK2B, P67870, UniProt P67870, whole entry: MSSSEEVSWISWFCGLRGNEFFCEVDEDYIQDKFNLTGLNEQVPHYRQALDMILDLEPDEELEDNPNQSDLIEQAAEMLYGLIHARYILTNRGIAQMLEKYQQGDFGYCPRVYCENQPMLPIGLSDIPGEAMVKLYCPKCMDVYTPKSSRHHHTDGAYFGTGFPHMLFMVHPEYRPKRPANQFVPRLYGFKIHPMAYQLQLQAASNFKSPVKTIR
# EIF3A, Q14152, UniProt Q14152, whole entry: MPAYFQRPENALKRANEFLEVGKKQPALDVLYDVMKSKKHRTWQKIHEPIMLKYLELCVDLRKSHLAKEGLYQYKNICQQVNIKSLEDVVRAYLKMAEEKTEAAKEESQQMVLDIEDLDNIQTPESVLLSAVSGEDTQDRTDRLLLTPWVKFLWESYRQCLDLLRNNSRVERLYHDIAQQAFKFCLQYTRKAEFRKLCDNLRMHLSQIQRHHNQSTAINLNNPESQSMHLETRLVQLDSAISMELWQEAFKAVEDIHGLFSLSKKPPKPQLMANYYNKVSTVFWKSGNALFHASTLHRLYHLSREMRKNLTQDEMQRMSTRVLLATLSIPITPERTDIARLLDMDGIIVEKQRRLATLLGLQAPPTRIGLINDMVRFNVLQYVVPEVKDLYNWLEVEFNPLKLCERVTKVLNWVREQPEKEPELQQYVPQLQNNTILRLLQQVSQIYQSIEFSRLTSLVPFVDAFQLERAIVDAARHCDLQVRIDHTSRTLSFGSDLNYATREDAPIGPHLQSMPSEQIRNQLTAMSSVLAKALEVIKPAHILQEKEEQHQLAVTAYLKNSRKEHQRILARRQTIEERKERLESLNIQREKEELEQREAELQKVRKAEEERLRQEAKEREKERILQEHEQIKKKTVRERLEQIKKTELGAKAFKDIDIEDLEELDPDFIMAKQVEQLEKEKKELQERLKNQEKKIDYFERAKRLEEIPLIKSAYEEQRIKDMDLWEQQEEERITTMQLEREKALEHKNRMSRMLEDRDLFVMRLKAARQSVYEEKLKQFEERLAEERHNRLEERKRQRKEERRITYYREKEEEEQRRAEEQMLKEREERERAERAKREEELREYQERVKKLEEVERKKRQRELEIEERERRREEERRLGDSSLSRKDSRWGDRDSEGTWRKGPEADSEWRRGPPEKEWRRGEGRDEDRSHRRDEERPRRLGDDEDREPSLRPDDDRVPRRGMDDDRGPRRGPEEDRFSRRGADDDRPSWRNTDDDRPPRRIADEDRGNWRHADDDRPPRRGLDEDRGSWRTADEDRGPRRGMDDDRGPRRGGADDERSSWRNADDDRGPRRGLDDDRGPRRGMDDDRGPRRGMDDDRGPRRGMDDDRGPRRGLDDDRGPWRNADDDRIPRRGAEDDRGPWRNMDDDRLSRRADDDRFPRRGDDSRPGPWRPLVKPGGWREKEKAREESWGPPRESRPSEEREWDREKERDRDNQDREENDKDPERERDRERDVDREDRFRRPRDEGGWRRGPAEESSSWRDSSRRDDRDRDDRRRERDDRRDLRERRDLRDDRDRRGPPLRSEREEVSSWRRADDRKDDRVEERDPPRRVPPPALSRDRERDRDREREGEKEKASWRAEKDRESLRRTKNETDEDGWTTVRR
# EIF4B, P23588, UniProt P23588, whole entry: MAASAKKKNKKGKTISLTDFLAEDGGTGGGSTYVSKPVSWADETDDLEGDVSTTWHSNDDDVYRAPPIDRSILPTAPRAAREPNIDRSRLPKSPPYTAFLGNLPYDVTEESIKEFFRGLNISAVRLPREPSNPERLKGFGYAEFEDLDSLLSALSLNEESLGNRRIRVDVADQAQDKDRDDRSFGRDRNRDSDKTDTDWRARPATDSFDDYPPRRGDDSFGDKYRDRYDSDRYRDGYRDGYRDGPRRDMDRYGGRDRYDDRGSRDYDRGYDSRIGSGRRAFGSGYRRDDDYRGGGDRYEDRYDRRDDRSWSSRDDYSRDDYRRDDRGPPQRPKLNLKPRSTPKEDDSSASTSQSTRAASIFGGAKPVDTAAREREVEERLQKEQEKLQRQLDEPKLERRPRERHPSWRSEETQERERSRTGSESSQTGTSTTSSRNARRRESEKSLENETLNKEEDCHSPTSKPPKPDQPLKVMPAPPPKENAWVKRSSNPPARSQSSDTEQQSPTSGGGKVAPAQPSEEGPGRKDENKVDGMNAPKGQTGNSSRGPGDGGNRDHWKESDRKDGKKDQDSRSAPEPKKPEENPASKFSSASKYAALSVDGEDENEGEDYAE
# PPP1CB, P62140, UniProt P62140, whole entry: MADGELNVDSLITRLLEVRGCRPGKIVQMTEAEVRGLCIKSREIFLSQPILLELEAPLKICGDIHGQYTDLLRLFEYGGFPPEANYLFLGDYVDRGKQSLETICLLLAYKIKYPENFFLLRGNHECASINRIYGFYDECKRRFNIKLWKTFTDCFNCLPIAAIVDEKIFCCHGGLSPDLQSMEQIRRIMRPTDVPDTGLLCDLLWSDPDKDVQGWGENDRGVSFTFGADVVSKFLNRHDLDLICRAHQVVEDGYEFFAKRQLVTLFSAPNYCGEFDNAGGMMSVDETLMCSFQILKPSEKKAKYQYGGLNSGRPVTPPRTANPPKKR
# NUDT21, O43809, UniProt O43809, whole entry: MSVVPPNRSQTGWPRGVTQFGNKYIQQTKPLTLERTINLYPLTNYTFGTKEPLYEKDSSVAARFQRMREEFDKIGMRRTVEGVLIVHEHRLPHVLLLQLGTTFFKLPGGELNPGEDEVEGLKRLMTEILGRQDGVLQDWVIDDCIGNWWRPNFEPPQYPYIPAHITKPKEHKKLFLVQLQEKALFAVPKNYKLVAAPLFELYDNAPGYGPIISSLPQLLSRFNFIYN
# The list shows a part of the results. Only hits are listed; about a third recur on repeated control peptides.
# Assays:
# Assay in all cases: PRISMA enrichment of interactor (LFQ) in peptide spot vs all other peptide spots (log2 fold change); higher = stronger / more specific binding of the interactor to the peptide
# AARS, P49588 = biological target: AARS, P49588
# Experimental: (§1)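 PRISMA: 15-aa overlapping tiles (offset 8 aa) of 60 microproteins, plus SOS1/GLUT1 control peptides, were spot-synthesized on cellulose membranes in triplicate. Membranes were incubated with benzonase-treated HEK293T lysate, and bound proteins were identified by LC-MS/MS with LFQ. Enrichment is the log2 fold change of each protein in one spot versus all other spots. Only interactors passing the significance cutoff are listed.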
# ACLY, P53396 = biological target: ACLY, P53396
# Experimental: as §1
# ACTL6A, O96019 = biological target: ACTL6A, O96019
# Experimental: as §1
# ATP6V1C1, P21283 = biological target: ATP6V1C1, P21283
# Experimental: as §1
# BAZ1B, Q9UIG0 = biological target: BAZ1B, Q9UIG0
# Experimental: as §1
# CCNB1, P14635 = biological target: CCNB1, P14635
# Experimental: as §1
# CDC5L, Q99459 = biological target: CDC5L, Q99459
# Experimental: as §1
# CEBPZ, Q03701 = biological target: CEBPZ, Q03701
# Experimental: as §1
# CSNK2B, P67870 = biological target: CSNK2B, P67870
# Experimental: as §1
# DDX6, P26196 = biological target: DDX6, P26196
# Experimental: as §1
# DNM2, P50570 = biological target: DNM2, P50570
# Experimental: as §1
# DSG2, Q14126 = biological target: DSG2, Q14126
# Experimental: as §1
# ECI2, O75521 = biological target: ECI2, O75521
# Experimental: as §1
# EEF1B2, P24534 = biological target: EEF1B2, P24534
# Experimental: as §1
# EIF3A, Q14152 = biological target: EIF3A, Q14152
# Experimental: as §1
# EIF4B, P23588 = biological target: EIF4B, P23588
# Experimental: as §1
# FBXO45, P0C2W1 = biological target: FBXO45, P0C2W1
# Experimental: as §1
# FLNA, P21333 = biological target: FLNA, P21333
# Experimental: as §1
# FMR1, Q06787 = biological target: FMR1, Q06787
# Experimental: as §1
# GPD1L, Q8N335 = biological target: GPD1L, Q8N335
# Experimental: as §1
# GTF3C1, Q12789 = biological target: GTF3C1, Q12789
# Experimental: as §1
# HACD2, Q6Y1H2 = biological target: HACD2, Q6Y1H2
# Experimental: as §1
# NBAS, A2RRP1 = biological target: NBAS, A2RRP1
# Experimental: as §1
# NOL12, Q9UGY1 = biological target: NOL12, Q9UGY1
# Experimental: as §1
# ODF2, Q5BJF6 = biological target: ODF2, Q5BJF6
# Experimental: as §1
# PPP1CB, P62140 = biological target: PPP1CB, P62140
# Experimental: as §1
# PRPF8, Q6P2Q9 = biological target: PRPF8, Q6P2Q9
# Experimental: as §1
# PSMB1, P20618 = biological target: PSMB1, P20618
# Experimental: as §1
# RBM33, Q96EV2 = biological target: RBM33, Q96EV2
# Experimental: as §1
# RECQL5, O94762 = biological target: RECQL5, O94762
# Experimental: as §1
# RIOK1, Q9BRS2 = biological target: RIOK1, Q9BRS2
# Experimental: as §1
# RTRAF, Q9Y224 = biological target: RTRAF, Q9Y224
# Experimental: as §1
# SBDS, Q9Y3A5 = biological target: SBDS, Q9Y3A5
# Experimental: as §1
# TAF15, Q92804 = biological target: TAF15, Q92804
# Experimental: as §1
# TMED1, Q13445 = biological target: TMED1, Q13445
# Experimental: as §1
# TRRAP, Q9Y4A5 = biological target: TRRAP, Q9Y4A5
# Experimental: as §1
# TWNK, Q96RR1 = biological target: TWNK, Q96RR1
# Experimental: as §1
# USP34, Q70CQ2 = biological target: USP34, Q70CQ2
# Experimental: as §1
# WTAP, Q15007 = biological target: WTAP, Q15007
# Experimental: as §1
# YTHDC2, Q9H6S0 = biological target: YTHDC2, Q9H6S0
# Experimental: as §1
# AAR2, Q9Y312 = biological target: AAR2, Q9Y312
# Experimental: as §1
# AIMP1, Q12904 = biological target: AIMP1, Q12904
# Experimental: as §1
# ALDH6A1, Q02252 = biological target: ALDH6A1, Q02252
# Experimental: as §1
# DDX31, Q9H8H2 = biological target: DDX31, Q9H8H2
# Experimental: as §1
# GPC4, O75487 = biological target: GPC4, O75487
# Experimental: as §1
# GTF3C3, Q9Y5Q9 = biological target: GTF3C3, Q9Y5Q9
# Experimental: as §1
# IDH3A, P50213 = biological target: IDH3A, P50213
# Experimental: as §1
# LSG1, Q9H089 = biological target: LSG1, Q9H089
# Experimental: as §1
# MRPL3, P09001 = biological target: MRPL3, P09001
# Experimental: as §1
# MRPS14, O60783 = biological target: MRPS14, O60783
# Experimental: as §1
# MRPS22, P82650 = biological target: MRPS22, P82650
# Experimental: as §1
# MT-ATP6, P00846 = biological target: MT-ATP6, P00846
# Experimental: as §1
# MT-ATP8, P03928 = biological target: MT-ATP8, P03928
# Experimental: as §1
# NUDT21, O43809 = biological target: NUDT21, O43809
# Experimental: as §1
# PELP1, Q8IZL8 = biological target: PELP1, Q8IZL8
# Experimental: as §1
# SCD, O00767 = biological target: SCD, O00767
# Experimental: as §1
# TMEM109, Q9BVC6 = biological target: TMEM109, Q9BVC6
# Experimental: as §1
# TPD52L2, O43399 = biological target: TPD52L2, O43399
# Experimental: as §1
binder,measurement,setting,value
LWRLDSKIESRSYMF [RP3-332B22.1],PRISMA enrichment of interactor (log2),"AARS, P49588",5.25
same,PRISMA enrichment of interactor (log2),"ACLY, P53396",6.16
same,PRISMA enrichment of interactor (log2),"ACTL6A, O96019",5.22
same,PRISMA enrichment of interactor (log2),"ATP6V1C1, P21283",4.2
same,PRISMA enrichment of interactor (log2),"BAZ1B, Q9UIG0",6.67
same,PRISMA enrichment of interactor (log2),"CCNB1, P14635",7.71
same,PRISMA enrichment of interactor (log2),"CDC5L, Q99459",5.29
same,PRISMA enrichment of interactor (log2),"CEBPZ, Q03701",4.76
same,PRISMA enrichment of interactor (log2),"CSNK2B, P67870",5.44
same,PRISMA enrichment of interactor (log2),"DDX6, P26196",5.12
same,PRISMA enrichment of interactor (log2),"DNM2, P50570",7.28
same,PRISMA enrichment of interactor (log2),"DSG2, Q14126",4.97
same,PRISMA enrichment of interactor (log2),"ECI2, O75521",4.54
same,PRISMA enrichment of interactor (log2),"EEF1B2, P24534",5.82
same,PRISMA enrichment of interactor (log2),"EIF3A, Q14152",5.01
same,PRISMA enrichment of interactor (log2),"EIF4B, P23588",4.56
same,PRISMA enrichment of interactor (log2),"FBXO45, P0C2W1",7.1
same,PRISMA enrichment of interactor (log2),"FLNA, P21333",5.85
same,PRISMA enrichment of interactor (log2),"FMR1, Q06787",5.1
same,PRISMA enrichment of interactor (log2),"GPD1L, Q8N335",5.82
same,PRISMA enrichment of interactor (log2),"GTF3C1, Q12789",4.84
same,PRISMA enrichment of interactor (log2),"HACD2, Q6Y1H2",5.28
same,PRISMA enrichment of interactor (log2),"NBAS, A2RRP1",3.9
same,PRISMA enrichment of interactor (log2),"NOL12, Q9UGY1",5.19
same,PRISMA enrichment of interactor (log2),"ODF2, Q5BJF6",6.48
same,PRISMA enrichment of interactor (log2),"PPP1CB, P62140",4.95
same,PRISMA enrichment of interactor (log2),"PRPF8, Q6P2Q9",5.61
same,PRISMA enrichment of interactor (log2),"PSMB1, P20618",5.22
same,PRISMA enrichment of interactor (log2),"RBM33, Q96EV2",4.24
same,PRISMA enrichment of interactor (log2),"RECQL5, O94762",5.23
same,PRISMA enrichment of interactor (log2),"RIOK1, Q9BRS2",12.2
same,PRISMA enrichment of interactor (log2),"RTRAF, Q9Y224",5.57
same,PRISMA enrichment of interactor (log2),"SBDS, Q9Y3A5",6.36
same,PRISMA enrichment of interactor (log2),"TAF15, Q92804",5.08
same,PRISMA enrichment of interactor (log2),"TMED1, Q13445",5.35
same,PRISMA enrichment of interactor (log2),"TRRAP, Q9Y4A5",5.04
same,PRISMA enrichment of interactor (log2),"TWNK, Q96RR1",7.88
same,PRISMA enrichment of interactor (log2),"USP34, Q70CQ2",4.86
same,PRISMA enrichment of interactor (log2),"WTAP, Q15007",6.71
same,PRISMA enrichment of interactor (log2),"YTHDC2, Q9H6S0",6.6
PGGGPLLASFATPLL [RP11-140K17.3_2],PRISMA enrichment of interactor (log2),"AAR2, Q9Y312",5.67
same,PRISMA enrichment of interactor (log2),"AIMP1, Q12904",4.67
same,PRISMA enrichment of interactor (log2),"ALDH6A1, Q02252",6.3
same,PRISMA enrichment of interactor (log2),"DDX31, Q9H8H2",4.39
same,PRISMA enrichment of interactor (log2),"GPC4, O75487",4.21
same,PRISMA enrichment of interactor (log2),"GTF3C3, Q9Y5Q9",6.55
same,PRISMA enrichment of interactor (log2),"IDH3A, P50213",4.58
same,PRISMA enrichment of interactor (log2),"LSG1, Q9H089",7.67
same,PRISMA enrichment of interactor (log2),"MRPL3, P09001",5.38
same,PRISMA enrichment of interactor (log2),"MRPS14, O60783",4.29
same,PRISMA enrichment of interactor (log2),"MRPS22, P82650",4.83
same,PRISMA enrichment of interactor (log2),"MT-ATP6, P00846",5.93
same,PRISMA enrichment of interactor (log2),"MT-ATP8, P03928",4.95
same,PRISMA enrichment of interactor (log2),"NUDT21, O43809",6.71
same,PRISMA enrichment of interactor (log2),"PELP1, Q8IZL8",6.26
same,PRISMA enrichment of interactor (log2),"SCD, O00767",4.43
same,PRISMA enrichment of interactor (log2),"TMEM109, Q9BVC6",4.9
same,PRISMA enrichment of interactor (log2),"TPD52L2, O43399",5.16

# Looked up one by one from the list above, 2 records:
binder,measurement,setting,value
LWRLDSKIESRSYMF [RP3-332B22.1],PRISMA enrichment of interactor (log2),"PSMB1, P20618",5.22
same,PRISMA enrichment of interactor (log2),"ODF2, Q5BJF6",6.48
